{
  "source": "patent US11752138B2",
  "about": "(VANDERBILT UNIVERSITY, priority 2020, dated 2023)",
  "target": "Human LDHA (Homo sapiens (Human), UniProt P00338)",
  "assay": "human LDHA primary biochemical assay (Example 1)",
  "settings": "biochemical LDHA inhibitory activity, assay of Example 1",
  "from_the_text": "This example describes a human LDHA primary biochemical assay employed in the characterization of a compound of Formula I in an embodiment of the dislcosure.\nTest compounds were placed in a Greiner Bio-One (Monroe, N.C.) 1536-well black solid bottom assay plate. 200 millimolar (mM) Tris HCl, pH 7.4, 100 micromolar (μM) EDTA and 0.01% TWEEN-20™, final concentration, was used as the assay buffer. The LDHA reagent was 2 nanomolar (nM) Human LDHA (Meridian Life Science, Inc., Memphis, Tenn.), final concentration, in assay buffer. The substrate reagent was 0.06 mM NADH and 0.2 mM sodium pyruvate, final concentration, in assay buffer. The resazurin/diaphorase coupling reagent was 0.037 mM resazurin and 0.133 milligrams per milliliter (mg/mL) diaphorase, final concentration, in assay buffer. The inhibition of LDHA activity was measured by fluorescence emission. […]",
  "note": "At least one compound was matched to its structure with a doubt left.",
  "data": [
    {"compound": "NS(=O)(=O)c1ccc(Cc2c(-c3ccc(F)c(-c4cccc(F)c4)c3)nn(-c3nc(C(=O)O)cs3)c2CC2CC2)cc1F", "note": "[Compound 196, 2-(5-(cyclopropylmethyl)-3-(3′,6-difluoro-[1,1′-biphenyl]-3-yl)-4-(3-fluoro-4-sulfamoylbenzyl)-1H-pyrazol-1-yl)thiazole-4-carboxylic acid]", "values": [
      {"measurement": "IC50", "value": "< 100", "unit": "nM"}
    ]},
    {"compound": "CN(C)c1ccc(-c2cc(-c3nn(-c4nc(C(=O)O)cs4)c(CC4CC4)c3Cc3ccc(S(N)(=O)=O)c(F)c3)ccc2F)cc1", "note": "[Compound 190, 2-(5-(cyclopropylmethyl)-3-(4′-(dimethylamino)-6-fluoro-[1,1′-biphenyl]-3-yl)-4-(3-fluoro-4-sulfamoylbenzyl)-1H-pyrazol-1-yl)thiazole-4-carboxylic acid]", "values": [
      {"measurement": "IC50", "value": "< 100", "unit": "nM"}
    ]}
  ]
}
